Reference: patent US8466143B2, “Azepine derivatives as pharmaceutical agents” (Exelixis, Inc., priority 2003, dated 2013)
Some results were stated once for a whole list of compounds, not compound by compound.

Sequences of proteins named here, by UniProt entry; tags and fusion partners are left off. A change or cut given only in a name is not applied to a line headed by its entry.
UniProt Q96RI1: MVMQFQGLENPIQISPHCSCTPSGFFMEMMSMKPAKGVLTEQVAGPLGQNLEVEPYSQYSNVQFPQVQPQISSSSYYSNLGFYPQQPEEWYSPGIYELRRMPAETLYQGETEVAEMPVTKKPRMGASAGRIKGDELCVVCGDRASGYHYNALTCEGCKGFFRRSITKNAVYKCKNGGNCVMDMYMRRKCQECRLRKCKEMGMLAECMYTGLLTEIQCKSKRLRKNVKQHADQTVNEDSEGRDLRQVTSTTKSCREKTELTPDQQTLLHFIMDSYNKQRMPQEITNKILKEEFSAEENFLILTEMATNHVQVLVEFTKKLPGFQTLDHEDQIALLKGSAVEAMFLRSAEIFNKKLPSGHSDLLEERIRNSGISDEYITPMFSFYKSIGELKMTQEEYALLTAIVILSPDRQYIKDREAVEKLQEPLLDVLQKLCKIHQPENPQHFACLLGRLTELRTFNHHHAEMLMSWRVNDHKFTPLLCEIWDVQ

Molecular target: T1, full length human farnesoid X receptor (Homo sapiens, UniProt Q96RI1)
T1 construct: CMX-farnesoid X receptor (full length human farnesoid X receptor); expressed in transfected cells; host or cells: CV-1 African Green Monkey Kidney cells
T1 sequence (Q96RI1 1-472 isoform Q96RI1-2): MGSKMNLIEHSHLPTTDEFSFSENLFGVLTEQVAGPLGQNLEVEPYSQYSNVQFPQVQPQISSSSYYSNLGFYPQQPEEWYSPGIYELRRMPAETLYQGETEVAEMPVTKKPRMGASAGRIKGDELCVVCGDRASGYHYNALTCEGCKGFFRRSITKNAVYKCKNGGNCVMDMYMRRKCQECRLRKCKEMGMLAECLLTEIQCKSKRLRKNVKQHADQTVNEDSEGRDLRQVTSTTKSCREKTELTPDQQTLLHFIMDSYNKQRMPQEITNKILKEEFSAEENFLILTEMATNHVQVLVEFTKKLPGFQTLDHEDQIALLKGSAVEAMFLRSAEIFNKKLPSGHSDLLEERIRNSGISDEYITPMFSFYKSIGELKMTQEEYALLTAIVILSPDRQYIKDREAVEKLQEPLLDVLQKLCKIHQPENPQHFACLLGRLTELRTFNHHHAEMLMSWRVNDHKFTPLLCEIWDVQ
T1 sequence (P19793 1-462 partner): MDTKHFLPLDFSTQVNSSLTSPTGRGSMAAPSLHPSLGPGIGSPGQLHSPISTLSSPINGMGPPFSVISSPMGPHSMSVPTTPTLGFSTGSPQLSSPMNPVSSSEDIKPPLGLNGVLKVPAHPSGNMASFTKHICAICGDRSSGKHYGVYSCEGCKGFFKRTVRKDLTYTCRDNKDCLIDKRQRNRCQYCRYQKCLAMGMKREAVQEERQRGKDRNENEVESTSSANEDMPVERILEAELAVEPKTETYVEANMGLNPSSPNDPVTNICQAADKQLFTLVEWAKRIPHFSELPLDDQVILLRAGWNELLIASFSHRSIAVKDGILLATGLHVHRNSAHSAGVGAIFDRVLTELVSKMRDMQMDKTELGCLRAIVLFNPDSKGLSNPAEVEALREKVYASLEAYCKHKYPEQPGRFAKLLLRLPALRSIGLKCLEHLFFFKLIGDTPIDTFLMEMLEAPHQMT
Assay: farnesoid X receptor/ECREx7 co-transfection assay
Type: cell-based
Details: relative to maximum response of chenodeoxycholic acid (CDCA)
Method: The basic co-transfection protocol for measuring the farnesoid X receptor activity is as follows. CV-1 African Green Monkey Kidney cells were plated 24 hours before transfection to achieve approximately 70-80 percent confluency. Cells were transfected with the following expression vectors, CMX-farnesoid X receptor (full length human farnesoid X receptor), CMX-RXRα (full length human RXR), Luc12 ((ECREx7-Tk-Luciferase) luciferase reporter gene construct. (See WO 00/76523, Venkateswaran et al., (2000) J. Biol. Chem. 275 14700-14707). A CMX-β-Galactosidase expression vector was used as a transfection control. The transfection reagent used was DOTAP (Boehringer Mannheim). Cells were incubated with the DOTAP/DNA mixture for 5 hours after which the cells were harvested and plated onto either 96 well or 384 well plates containing the appropriate concentration of test compound. The assay was allowed to continue for an additional 18-20 hours, after which the cells were lysed, with lysis buffer (1% triton X 100, 10% glycerol, 5 mM Dithiothreitol, 1 mM EGTA, 25 mM Tricine, pH 7.8) and the luciferase activity measured in the presence of Luciferase assay buffer (0.73 mM ATP, 22.3 mM Tricine, 0.11 mM EGTA, 0.55 mM Luciferin, 0.15 mM Coenzyme A, 0.5 mM HEPES, 10 mM Magnesium sulphate) on a standard luminomter plate reader (PE Biosystems, NorthStar Reader), using recommended operating instructions and conditions.
Both the farnesoid X receptor/ECREx7 co-transfection assay (Example 10) and the TR-FRET assay (Example 9) can be used to establish the EC50/IC50 values for potency and percent activity or inhibition for efficacy. Efficacy defines the activity of a compound relative to a high control (chenodeoxycholic acid, CDCA) or a low control (DMSO/vehicle). The dose response curves are generated from an 8 point curve with concentrations differing by ½ LOG units. Each point represents the average of 4 wells of data from a 384 well plate. The curve for the data is generated by using the equation: Y=Bottom+(Top-Bottom)/(1+10^((Log EC50−X)*HillSlope))
The EC50/IC50 is therefore defined as the concentration at which an agonist or antagonist elicits a response that is half way between the Top (maximum) and Bottom (baseline) values. The EC50/IC50 values represented are the averages of at least 3 independent experiments. The determination of the relative efficacy or % control for an agonist is by comparison to the maximum response achieved by chenodeoxycholic acid that is measured individually in each dose response experiment.
For the antagonist assay, CDCA is added to each well of a 384 well plate to elicit a response. The % inhibition for each antagonist is therefore a measurement of the inhibition of the activity of CDCA. In this example, 100% inhibition would indicate that the activity of CDCA has been reduced to baseline levels, defined as the activity of the assay in the presence of DMSO only.

efficacy, greater than 100%:
CCOC(=O)C1CN(C(=O)c2ccc(F)cc2)CC(C)(C)c2c1[nH]c1c2CCCC1 (stereo not drawn) [3-(4-Fluoro-benzoyl)-1,1-dimethyl-1,2,3,4,5,6,7,8,9,10-decahydro-azepino[4,5-b]indole-5-carboxylic acid ethyl ester], CCOC(=O)C1=CN(C(=O)c2ccc(F)cc2)CC(C)(C)c2c1[nH]c1c2CCCC1 [3-(4-Fluoro-benzoyl)-1,1-dimethyl-1,2,3,6,7,8,9,10-octahydro-azepino[4,5-b]indole-5-carboxylic acid ethyl ester], CCOC(=O)c1cc2c(n1C)C(C(=O)OC(C)C)=CN(C(=O)c1ccc(F)c(F)c1)CC2(C)C [6-(3,4-Difluoro-benzoyl)-1,4,4-trimethyl-1,4,5,6-tetrahydro-pyrrolo[2,3-d]azepine-2,8-dicarboxylic acid 2-ethyl ester 8-isopropyl ester], CCOC(=O)c1cc2c([nH]1)C(C(=O)OC(C)C)=CN(C(=O)c1ccc(F)c(F)c1)CC2(C)C [6-(3,4-Difluoro-benzoyl)-4,4-dimethyl-1,4,5,6-tetrahydro-pyrrolo[2,3-d]azepine-2,8-dicarboxylic acid 2-ethyl ester 8-isopropyl ester], CCOC(=O)C1=CN(C(=O)c2ccc(F)c(F)c2)CC(C)(C)c2cc(C(=O)OCC)[nH]c21 [6-(3,4-Difluoro-benzoyl)-4,4-dimethyl-1,4,5,6-tetrahydro-pyrrolo[2,3-d]azepine-2,8-dicarboxylic acid diethyl ester], CCOC(=O)C1=CN(C(=O)c2ccc(F)c(F)c2)CC(C)(C)c2ccsc21 [6-(3,4-Difluoro-benzoyl)-4,4-dimethyl-5,6-dihydro-4H-thieno[2,3-d]azepine-8-carboxylic acid ethyl ester]
